Assay results from the supplement of paper PMC10849652.
The list shows a part of the results.

Protein sequences, listed by entry. Tags and fused reporters are not part of them. Lines headed by an entry give the natural chain unless they say otherwise; changes in a name come on top.
UniProt Q9P2K6: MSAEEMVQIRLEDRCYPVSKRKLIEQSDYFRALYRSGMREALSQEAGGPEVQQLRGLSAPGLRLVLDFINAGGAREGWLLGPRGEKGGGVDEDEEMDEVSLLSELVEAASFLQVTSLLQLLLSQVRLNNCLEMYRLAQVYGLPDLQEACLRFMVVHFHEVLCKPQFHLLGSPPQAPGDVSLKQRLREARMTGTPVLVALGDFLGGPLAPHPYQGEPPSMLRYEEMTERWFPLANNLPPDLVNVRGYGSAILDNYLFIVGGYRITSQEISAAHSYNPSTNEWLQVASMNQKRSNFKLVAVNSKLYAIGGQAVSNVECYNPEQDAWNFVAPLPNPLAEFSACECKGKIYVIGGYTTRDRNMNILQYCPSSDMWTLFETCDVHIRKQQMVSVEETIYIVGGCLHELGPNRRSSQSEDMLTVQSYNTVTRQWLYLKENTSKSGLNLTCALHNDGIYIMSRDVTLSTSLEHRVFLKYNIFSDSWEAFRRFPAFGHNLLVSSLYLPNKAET
UniProt P0C870: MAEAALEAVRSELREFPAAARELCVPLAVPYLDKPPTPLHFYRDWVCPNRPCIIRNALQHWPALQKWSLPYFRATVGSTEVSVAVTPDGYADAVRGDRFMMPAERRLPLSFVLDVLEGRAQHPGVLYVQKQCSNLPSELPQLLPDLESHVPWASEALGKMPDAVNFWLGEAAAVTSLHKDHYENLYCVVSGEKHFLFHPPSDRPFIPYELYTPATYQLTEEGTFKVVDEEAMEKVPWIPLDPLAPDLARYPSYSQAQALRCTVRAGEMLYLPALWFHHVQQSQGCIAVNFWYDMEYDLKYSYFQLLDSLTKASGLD
UniProt Q8WYB5, whole entry, looked up: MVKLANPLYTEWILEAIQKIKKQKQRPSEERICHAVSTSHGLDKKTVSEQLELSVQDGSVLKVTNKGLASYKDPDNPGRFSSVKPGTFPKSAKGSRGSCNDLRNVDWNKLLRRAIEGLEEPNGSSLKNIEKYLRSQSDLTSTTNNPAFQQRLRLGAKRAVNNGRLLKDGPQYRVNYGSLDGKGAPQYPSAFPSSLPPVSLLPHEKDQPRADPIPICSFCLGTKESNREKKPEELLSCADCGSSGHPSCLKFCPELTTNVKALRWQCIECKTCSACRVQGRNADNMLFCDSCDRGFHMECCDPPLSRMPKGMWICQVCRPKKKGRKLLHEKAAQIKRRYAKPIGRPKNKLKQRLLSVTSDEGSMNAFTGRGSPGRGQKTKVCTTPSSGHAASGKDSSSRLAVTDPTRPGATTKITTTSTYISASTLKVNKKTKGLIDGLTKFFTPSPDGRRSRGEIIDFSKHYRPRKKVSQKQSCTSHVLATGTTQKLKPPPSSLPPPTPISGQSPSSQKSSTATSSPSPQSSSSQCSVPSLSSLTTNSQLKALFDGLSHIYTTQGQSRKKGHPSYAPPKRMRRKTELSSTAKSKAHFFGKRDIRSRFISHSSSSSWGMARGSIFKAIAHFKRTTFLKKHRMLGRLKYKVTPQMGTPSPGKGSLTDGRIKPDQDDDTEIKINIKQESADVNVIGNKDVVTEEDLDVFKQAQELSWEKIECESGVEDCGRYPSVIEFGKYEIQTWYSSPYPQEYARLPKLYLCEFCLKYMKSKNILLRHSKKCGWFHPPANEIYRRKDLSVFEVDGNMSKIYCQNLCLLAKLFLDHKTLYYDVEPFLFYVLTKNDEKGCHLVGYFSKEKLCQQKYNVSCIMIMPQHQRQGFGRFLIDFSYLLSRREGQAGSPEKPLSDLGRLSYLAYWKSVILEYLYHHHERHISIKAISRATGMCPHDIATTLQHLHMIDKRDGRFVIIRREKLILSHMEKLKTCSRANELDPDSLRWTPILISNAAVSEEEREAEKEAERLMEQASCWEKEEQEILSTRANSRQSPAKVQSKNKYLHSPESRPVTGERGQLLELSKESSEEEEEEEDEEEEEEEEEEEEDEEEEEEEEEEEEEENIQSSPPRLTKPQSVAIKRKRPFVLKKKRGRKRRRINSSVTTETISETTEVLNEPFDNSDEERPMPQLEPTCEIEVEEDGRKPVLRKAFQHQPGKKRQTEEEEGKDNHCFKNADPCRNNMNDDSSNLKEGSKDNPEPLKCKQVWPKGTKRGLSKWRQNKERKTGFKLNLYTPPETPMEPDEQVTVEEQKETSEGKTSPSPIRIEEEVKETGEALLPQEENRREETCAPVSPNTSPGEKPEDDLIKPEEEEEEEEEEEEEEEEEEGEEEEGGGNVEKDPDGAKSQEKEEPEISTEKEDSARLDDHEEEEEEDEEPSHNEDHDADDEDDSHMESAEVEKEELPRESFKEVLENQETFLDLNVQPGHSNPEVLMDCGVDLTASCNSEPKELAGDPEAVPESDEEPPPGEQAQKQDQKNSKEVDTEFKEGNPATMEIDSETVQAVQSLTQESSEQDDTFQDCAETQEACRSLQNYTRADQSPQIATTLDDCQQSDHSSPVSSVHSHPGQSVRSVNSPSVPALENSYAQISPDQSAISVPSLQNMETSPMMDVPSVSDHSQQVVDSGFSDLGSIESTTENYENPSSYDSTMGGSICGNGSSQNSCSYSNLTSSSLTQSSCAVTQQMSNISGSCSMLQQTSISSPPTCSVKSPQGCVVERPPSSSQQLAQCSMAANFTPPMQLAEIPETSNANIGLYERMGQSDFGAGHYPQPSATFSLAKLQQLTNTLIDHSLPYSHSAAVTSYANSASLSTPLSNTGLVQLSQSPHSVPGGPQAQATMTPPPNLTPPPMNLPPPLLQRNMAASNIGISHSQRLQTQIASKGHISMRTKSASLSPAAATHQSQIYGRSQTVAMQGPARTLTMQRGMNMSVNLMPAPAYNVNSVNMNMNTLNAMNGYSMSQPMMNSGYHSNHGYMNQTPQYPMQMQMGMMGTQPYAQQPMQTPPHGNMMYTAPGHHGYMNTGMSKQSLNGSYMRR

How the values were obtained:
Assay in all cases: log2 fold change, soluble protein after heating vs DMSO (PISA); higher = thermal stabilisation; K562 cells, 10 uM, 30 min; active = over 0.2 and 3.5 SD of the protein, either way, in both replicates (recomputed)
zotarolimus = compound: CO[C@H]1C[C@@H]2CC[C@@H](C)[C@@](O)(O2)C(=O)C(=O)N2CCCC[C@H]2C(=O)O[C@H]([C@H](C)C[C@@H]2CC[C@H](n3cnnn3)[C@H](OC)C2)CC(=O)[C@H](C)/C=C(\C)[C@@H](O)[C@@H](OC)C(=O)[C@H](C)C[C@H](C)/C=C/C=C/C=C/1C [zotarolimus]
How it was run: (§1)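 K562 cells at 2×10^6 cells/mL were given 10 μM compound for 30 min. Aliquots then went through 3 min of heating across 48°C-58°C, were pooled, and were extracted in PBS with 0.5% NP-40 at 4°C, and the supernatant after 21,000xg for 90 min was quantified by TMTpro 16plex LC-MS/MS with channel sums equalised. Thermal stability relative to control samples, from duplicates, is given as log2 fold change.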

[1] = compound: COc1cc2nc(-c3cc(F)ccc3O)nc(N[C@@H]3CNC[C@H]3C(C)(C)O)c2cc1OC
How it was run: as §1

lapatinib = compound: CS(=O)(=O)CCNCc1ccc(-c2ccc3ncnc(Nc4ccc(OCc5cccc(F)c5)c(Cl)c4)c3c2)o1 [lapatinib]
How it was run: as §1

[2] = compound: C[C@@H]1COCCN1C2=NC(=NC(=C2)C3(CC3)S(=O)(=O)C)C4=C5C=CNC5=CC=C4
How it was run: as §1

[3] = compound: C[C@H](C1=CC=C(C=C1)C(=O)NC2=C3C=CNC3=NC=C2)N
How it was run: as §1

duvelisib = compound: C[C@H](Nc1ncnc2nc[nH]c12)c1cc2cccc(Cl)c2c(=O)n1-c1ccccc1 [duvelisib]
How it was run: as §1

tozasertib = compound: Cc1cc(Nc2cc(N3CCN(C)CC3)nc(Sc3ccc(NC(=O)C4CC4)cc3)n2)n[nH]1 [tozasertib]
How it was run: as §1

[4] = compound: Cc1cc(SCc2sc(-c3ccc(C(F)(F)F)cc3)nc2C)ccc1OCC(=O)O
How it was run: as §1

filanesib = compound: CON(C)C(=O)N1N=C(c2cc(F)ccc2F)S[C@@]1(CCCN)c1ccccc1 [filanesib]
How it was run: as §1

gefitinib = compound: COc1cc2ncnc(Nc3ccc(F)c(Cl)c3)c2cc1OCCCN1CCOCC1 [gefitinib]
How it was run: as §1

[5] = compound: CS(=O)(=O)c1ccc(-c2cnc(N)c(C(=O)Nc3ccccc3)n2)cc1
How it was run: as §1

idasanutlin = compound: COc1cc(C(=O)O)ccc1NC(=O)[C@@H]1N[C@@H](CC(C)(C)C)[C@](C#N)(c2ccc(Cl)cc2F)[C@H]1c1cccc(Cl)c1F [idasanutlin]
How it was run: as §1

alisertib = compound: COc1cc(Nc2ncc3c(n2)-c2ccc(Cl)cc2C(c2c(F)cccc2OC)=NC3)ccc1C(=O)O [alisertib]
How it was run: as §1

[6] = compound: COc1cccc2cc(-c3nc([C@H]4CC[C@H](C(=O)O)CC4)n4ncnc(N)c34)[nH]c12
How it was run: as §1

pictilisib = compound: CS(=O)(=O)N1CCN(Cc2cc3nc(-c4cccc5[nH]ncc45)nc(N4CCOCC4)c3s2)CC1 [pictilisib]
How it was run: as §1

gandotinib = compound: Cc1cc(Nc2cc(CN3CCOCC3)c3nc(C)c(Cc4ccc(Cl)cc4F)n3n2)n[nH]1 [gandotinib]
How it was run: as §1

ispinesib = compound: Cc1ccc(C(=O)N(CCCN)[C@@H](c2nc3cc(Cl)ccc3c(=O)n2Cc2ccccc2)C(C)C)cc1 [ispinesib]
How it was run: as §1

Measured: log2 fold change

KLHL42 (UniProt Q9P2K6)
inactive: zotarolimus 0.065 | [1] 0.055 | lapatinib 0.007 | [2] 0.005 | [3] 0.091 | duvelisib 0.029 | tozasertib -0.236 | [4] 0.05

JMJD7 (UniProt P0C870)
inactive: filanesib 0.116 | gefitinib 0.027 | [5] -0.15 | [2] 0.061 | duvelisib 0.889 | [4] 0.743

KAT6B (UniProt Q8WYB5)
inactive: idasanutlin 0.07 | alisertib -0.05 | [1] -0.04 | gefitinib -0.025 | [6] -0.133 | lapatinib -0.021 | pictilisib 0.052 | gandotinib 0.05 | tozasertib 0.01 | ispinesib -0.005
